Results on 2 molecules are retold here after article PMC2640461.

By UniProt entry, the sequences of proteins in these tests, tags left out.
UniProt Q08297: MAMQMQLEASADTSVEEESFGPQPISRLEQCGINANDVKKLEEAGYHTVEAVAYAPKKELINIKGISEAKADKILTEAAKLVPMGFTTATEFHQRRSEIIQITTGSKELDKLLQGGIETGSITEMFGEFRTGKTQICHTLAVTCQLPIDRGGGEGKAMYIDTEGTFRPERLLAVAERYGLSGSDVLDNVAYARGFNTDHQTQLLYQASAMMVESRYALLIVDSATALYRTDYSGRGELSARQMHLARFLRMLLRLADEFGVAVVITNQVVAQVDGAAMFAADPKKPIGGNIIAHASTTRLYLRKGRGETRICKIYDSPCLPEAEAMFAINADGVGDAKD

Where two headings read alike, the source gives them in different places. No constants are given. Whether binding was seen depends on the method and setting. In cells and extracts the contact can be indirect. Some entries that bind do so weakly or less than the wild type.

The target in assay [1] is T1, SYCE2 (mouse (endogenous in testis)) (UniProt Q505B8).
T1 sequence: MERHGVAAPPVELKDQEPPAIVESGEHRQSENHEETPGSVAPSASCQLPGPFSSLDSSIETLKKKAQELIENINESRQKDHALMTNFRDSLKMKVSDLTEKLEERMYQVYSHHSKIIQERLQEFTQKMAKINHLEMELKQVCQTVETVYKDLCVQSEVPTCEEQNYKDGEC
Briefly: co-IP; extracts (0.5 mg-1.5 ml) from adult wild-type and Syce1-/- mouse testes incubated with anti-SYCE2 antibodies (10 ul) or pre-immune serum (5 ul); precipitates analysed by Western blotting (anti-RAD51 or anti-SYCP3); control IP from Syce2-/- testis extract. Background: Immunoblotting shows a protein as a band on a membrane.

In assay [2] the target is T1, SYCE2 (mouse (endogenous in testis)). The assay is described as above. This is another data set of the same source.

For RAD51 (from UniProt Q08297 1-339), in assay [1], the binding entry is “binds weakly”.

B1: SYCP3 (protein, UniProt P70281 1-254)
chain: MLRGCGDSDSSPEPLSKHLKMVPGGRKHSGKSGKPPLVDQPKKAFDFEKDDKDLSGSEEDVADEKAPVIDKHGKKRSAGIIEDVGGEVQNMLEKFGADINKALLAKRKRIEMYTKASFKASNQKIEQIWKTQQEEIQKLNNEYSQQFMNVLQQWELDIQKFEEQGEKLSNLFRQQQKIFQQSRIVQSQRMFAMKQIHEQFIKSLEDVEKNNDNLFTGTQSELKKEMAMLQKKVMMETQQQEMANVRKSLQSMLF
For B1, in assay [2], the binding entry is “no binding”.
